Data as given in PubChem BioAssay AID743266 (National Center for Advancing Translational Sciences (NCATS), 2014).
Hit rate of the full screen: of about 410,000 compounds, about 310 (0.076%) were called active. Inconclusive means that the source gave no clear call. Such entries were picked first, then a sample of the others. The call rests on the fitted dose curve; in most records, active means well fitted activation curve with a large enough effect; inconclusive means small, poorly fitted or top-dose-only effect, or another doubt; inactive means no such curve, though single readings can be large or run the other way. Where the call is inconclusive, the potency comes from a doubtful curve fit.

Chains of the proteins cited; added tags and fusions are not shown.
UniProt Q03431, whole entry, looked up: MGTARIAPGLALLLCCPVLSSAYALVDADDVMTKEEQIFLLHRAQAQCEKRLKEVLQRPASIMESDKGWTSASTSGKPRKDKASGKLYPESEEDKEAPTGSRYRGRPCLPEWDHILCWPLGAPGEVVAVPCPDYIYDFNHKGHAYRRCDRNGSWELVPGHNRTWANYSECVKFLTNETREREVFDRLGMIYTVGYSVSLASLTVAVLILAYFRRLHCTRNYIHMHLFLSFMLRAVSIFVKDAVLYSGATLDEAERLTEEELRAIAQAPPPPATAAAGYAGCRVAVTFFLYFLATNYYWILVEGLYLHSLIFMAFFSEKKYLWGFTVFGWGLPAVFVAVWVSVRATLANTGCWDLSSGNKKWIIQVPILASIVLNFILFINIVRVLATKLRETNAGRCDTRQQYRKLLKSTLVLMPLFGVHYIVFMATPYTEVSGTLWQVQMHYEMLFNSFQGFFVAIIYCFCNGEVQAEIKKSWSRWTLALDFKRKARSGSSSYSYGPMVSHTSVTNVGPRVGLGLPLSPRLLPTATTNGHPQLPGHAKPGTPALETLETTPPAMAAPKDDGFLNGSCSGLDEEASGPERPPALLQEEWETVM

target: Parathyroid hormone/parathyroid hormone-related peptide receptor (Homo sapiens) (UniProt Q03431); test: qHTS for PTHR1 Agonists: Primary Screen; settings: HEK293 GP2 PTHR1 cells, GloSensor cAMP luminescence, 1 h; activation: at 115 µM (top of the series) unless noted; series mostly up to 115 µM; further: nearly all actives have a fitted effect of over 55% in size
Summary of the method: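 HEK-293-derived GP2 cells expressing PTHR1 and a GloSensor cAMP reporter, 3,000/well, plated overnight, given luciferin plus IBMX (each 0.5 mM as added) for 1 h at 37 °C, then compound for 1 h at 37 °C. Luminescence was read after 15 min at room temperature.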
Potency means the concentration at half of the fitted maximal effect.

Structure (SMILES)	activation	Potency
CCOC(=O)Cn1c(=O)n(C2CCCCC2)c2nc(-c3cccc(C)c3)nc(C(N)=O)c21	inconclusive: 90.2% [activator]	–
COc1ccc(C(=O)CCN2CCCCCC2)cc1	–	inactive
CCOC(=O)C1CCN(C(c2ccc(OC)c(OC)c2)c2sc3nc(C)nn3c2O)CC1 (centres undefined)	–	inconclusive: 15.8 µM [activator, partial curve, poor fit]
COc1ccc(NC(=O)N2CCN(c3cccc(C(F)(F)F)c3)CC2)cc1	inconclusive: 55.5% [activator] [at 57.5 µM]	–
CCOc1cc(C(C#N)N2CCCCC2)ccc1OC (centres undefined)	–	inconclusive: 50.1 µM [activator, single point]
CSc1ccccc1NC(=O)CNCCCN1CCOCC1	–	inactive
CN(Cc1ccccc1)C(C(=O)NC1CCCCC1)c1ccc(Cl)cc1 (centres undefined)	–	inconclusive: 50.1 µM [activator, partial curve, poor fit]
Cc1ccc(N(CC(O)CN2CCCC2)S(=O)(=O)c2ccccc2)cc1 (centres undefined)	–	inconclusive: 4.47 µM [activator, full curve, poor fit]
COc1cccc(-c2cc(C(=O)O)no2)c1	–	inconclusive: 39.8 µM [activator, single point]
O=C(O)c1ccc(Cl)c(S(=O)(=O)N(Cc2ccccc2)c2ccc(F)cc2)c1	inconclusive: 103% [activator]	–
COc1ccc(N2C(=O)C3C4C=CC(C4)C3C2=O)c([N+](=O)[O-])c1 (centres undefined)	inconclusive: 39.1% [activator]	–
COc1ccc(C2c3ccc4ccccc4c3Oc3ncn(CCN(C)C)c(=N)c32)cc1 (centres undefined)	–	inactive
CCOC(=O)CSc1nnc(-c2ccc(S(=O)(=O)N3CCC(C)CC3)cc2)o1	–	inconclusive: 35.5 µM [activator, single point]
O=C(c1cc(COc2cccc3cnccc23)on1)N1CCC(c2ccccc2Cl)C1 (centres undefined)	–	inactive
CC(C)NS(=O)(=O)c1ccc(OCC(=O)N2CCN(c3ccccc3F)CC2)cc1	–	inactive
c1ccc(-c2nc(NCCCn3ccnc3)c3ccccc3n2)cc1	–	inconclusive: 2.82 µM [activator, full curve, poor fit]
Cc1ccc(NC(=O)C2C3CC4OC(=O)C2C4C3)cc1Cl (centres undefined)	–	inconclusive: 14.1 µM [activator, partial curve, poor fit]
O=C(O)CCS(=O)(=O)c1cccc2cccnc12	–	inconclusive: 35.5 µM [activator, single point]
CCCCN1C(=O)C(=O)N(CC(=O)Nc2cc(Cl)ccc2OC)C1=O	inconclusive: 45% [activator]	–
O=C(C[n+]1cc(Br)cc(Br)c1)c1ccc(-c2ccccc2)cc1	inconclusive: -73% [activator]	–
COCCCN1C(=O)C(=O)/C(=C(/O)c2ccc(S(=O)(=O)N3CCCCC3)cc2)C1c1ccc(F)cc1 (centres undefined)	–	inconclusive: 141 µM [activator, single point]
CC1CC(C)CN(CCOc2ccc(Cl)cc2Cl)C1 (centres undefined)	–	inactive
Cc1ccc(C)c(-n2ccnc2SCC(=O)c2c(N)n(C3CC3)c(=O)[nH]c2=O)c1	–	inconclusive: 31.6 µM [activator, full curve, poor fit]

Structure (SMILES)	activation	Potency
COc1ccccc1CNC(=O)c1ccc(CNc2c(N3CCCC3)c(=O)c2=O)cc1	–	inconclusive: 158 µM [activator, single point]
CCOC(=O)N1CCN(C(=O)c2cn(CC)c3ccc(S(=O)(=O)N4CCOCC4)cc3c2=O)CC1	–	inconclusive: 100 µM [activator, single point]
COCCn1c(=S)[nH]c2cc(C(=O)NCC3CCCO3)ccc2c1=O (centres undefined)	–	inconclusive: 39.8 µM [activator, single point]
Cc1ccccc1-n1c(SC(C)C(N)=O)nnc1-c1cccnc1 (centres undefined)	–	inconclusive: 5.62 µM [activator, partial curve, poor fit]
CNc1oc(Cc2cccc3ccccc23)nc1C#N	–	inconclusive: 39.8 µM [activator, single point]
COc1cccc(CNC(=O)c2ccc(CS(=O)c3ccccc3)o2)c1 (centres undefined)	–	inconclusive: 5.01 µM [activator, full curve]
COc1ccc(CCNC(=O)CN2C(=O)COc3ccccc32)cc1OC	–	inconclusive: 126 µM [activator, single point]
Cc1cc(NS(=O)(=O)c2ccc(-c3ccccc3)cc2)no1	–	inactive
COc1ccc(N2CCN(C(=O)CNC(=O)Cc3ccc(Cl)cc3)CC2)cc1	–	inactive
COc1ccc(N2CCN(c3oc(COc4ccc(Cl)cc4)nc3C#N)CC2)cc1	inconclusive: -30.7% [activator] [at 57.5 µM]	–
Cc1ccc2c(c1)N(CC(=O)NCC1CCCO1)C(=O)C(C(C)C)O2 (centres undefined)	–	inconclusive: 50.1 µM [activator, partial curve, poor fit]
O=C(Nc1ccncc1)c1cccc(S(=O)(=O)N2CCN(c3ccc(F)cc3)CC2)c1	inconclusive: -60.1% [activator]	–
Fc1ccc(-n2ncc3c(Nc4ccc(Oc5ccccc5)cc4)ncnc32)cc1	–	inactive
O=C(COC(=O)c1ccc[nH]c1=O)Nc1cc(S(=O)(=O)N2CCCCC2)ccc1Cl	–	inconclusive: 100 µM [activator, partial curve, poor fit]
CN1/C(=C\C=C2/SC(=S)N(CC(=O)O)C2=O)C(C)(C)c2ccccc21	–	inactive
NC(=O)c1c(N)sc2c1CCC2	inconclusive: 38.3% [activator]	–
COc1ccc(N=Cc2ccc[nH]2)cc1	–	inconclusive: 15.8 µM [activator, partial curve, poor fit]
Cc1cc(C(C#N)c2ccc(Cl)cc2)c(Cl)cc1NC(=O)c1cc(I)cc(I)c1O (centres undefined)	inconclusive: -80.5% [activator]	–
O=C(Nc1ccc(N2CCCCCC2)cc1)c1ccccc1Cl	–	inactive
C=CCN(CC(O)c1cccc([N+](=O)[O-])c1)C(C)CCc1ccccc1 (centres undefined)	–	inconclusive: 12.6 µM [activator, partial curve]
Cc1nc(CNS(=O)(=O)c2cc(F)ccc2F)cs1	–	inactive
CS(=O)(=O)c1ccc(Cl)c(NC(=O)COC(=O)CNC(=O)c2sc3ccccc3c2Cl)c1	–	inconclusive: 1.41 µM [activator, partial curve, poor fit]
COc1ccc(-c2nnc3sc(COc4ccc(C)cc4)nn23)cc1	–	inactive

Structure (SMILES)	activation	Potency
Cc1c2cnccc2c(C)c2c1oc1ccccc12	–	inconclusive: 89.1 µM [activator, partial curve, poor fit]
Cc1ccccc1CSc1nc(-c2ccccc2)nc2c1Cc1c(CO)cnc(C)c1O2	inconclusive: 45.6% [activator]	–
CCOC(=O)c1ccccc1NCN1C(=O)CSC1=O	inconclusive: 36.5% [activator] [at 57.5 µM]	–
COc1cccc(C(=O)NCC(c2ccc(N(C)C)cc2)N2CCOCC2)c1OC (centres undefined)	–	inconclusive: 79.4 µM [activator, partial curve, poor fit]
COC(=O)c1c(NC(=O)/C=C/c2ccco2)sc2c1CCC2	–	inactive
Cc1c(O)ccc2c(CC(=O)N[C@@H](Cc3ccc(O)cc3)C(=O)O)cc(=O)oc12	–	inconclusive: 44.7 µM [activator, partial curve, poor fit]
CCOc1ccc(N(C)S(=O)(=O)c2ccc(C)c(C(=O)N3CCN(Cc4ccc5c(c4)OCO5)CC3)c2)cc1	–	inactive
CC(=O)c1ccc(N2CCN(S(=O)(=O)c3c(C)[nH]c(=O)[nH]c3=O)CC2)cc1	–	inconclusive: 50.1 µM [activator, partial curve, poor fit]
COc1ccc(-c2cc(C(=O)OCC(=O)N(C)C)c3ccccc3n2)cc1	inconclusive: -9.37% [activator] [at 57.5 µM]	–
CCCNC(=O)Cn1c(=O)c2cccn2c2cccnc21	–	inconclusive: 25.1 µM [activator, partial curve]
CCOc1cc(CNCCCN2CCOCC2)cc(Br)c1OCc1ccccc1Cl	–	inactive
O=C(CCC1CCCCC1)NC1=NCCS1	–	inconclusive: 112 µM [activator, partial curve, poor fit]
O=C(C1CCCN(Cc2nc(-c3cccs3)no2)C1)N1CCOCC1 (centres undefined)	–	inconclusive: 126 µM [activator, single point]
Cc1ccccc1N(C(=O)Cn1nnc(-c2cccs2)n1)C(C(=O)NCCC(C)C)c1ccco1 (centres undefined)	–	inconclusive: 2.51 µM [activator, partial curve]
Cc1ccc(NC(=O)COC(=O)c2cc(=O)c3ccccc3o2)c(Br)c1	inconclusive: 37.1% [activator]	–
Cc1ccc(NNC(=O)c2c(C)noc2C)cc1Cl	–	inactive
O=C(Cc1cccs1)Nc1ccc(-c2nc3ccccc3[nH]2)cc1	–	inactive
O=S(=O)(c1ccccc1)c1nc(-c2ccccc2)oc1N1CCCCC1	–	inconclusive: 1.58 µM [activator, partial curve]
CC1(C(=O)NS(=O)(=O)c2ccccc2Cl)CCN1C(=O)Cc1ccccc1Cl (centres undefined)	–	inactive
CC1=CS/C(=C(/C#N)C(=O)N2CCOCC2)N1c1ccccc1	–	inconclusive: 14.1 µM [activator, partial curve, poor fit]
CCCCSc1nnc(CSc2nc3nc(C)cc(C)n3n2)o1	–	inconclusive: 39.8 µM [activator, single point]
CC(NC(=O)Nc1ccc([N+](=O)[O-])cc1)C(c1cccs1)N1CCCC1 (centres undefined)	inconclusive: 30.5% [activator]	–
Cc1ccc(C(=O)Nc2nc3nc(-c4ccccc4)cc(=O)n3[nH]2)cc1	–	inconclusive: 141 µM [activator, single point]

Quoted at random: five records from the list.
Structure (SMILES)	activation	Potency
CCOC(=O)c1ccccc1NCN1C(=O)CSC1=O	inconclusive: 36.5% [activator] [at 57.5 µM]	–
Cc1ccccc1CSc1nc(-c2ccccc2)nc2c1Cc1c(CO)cnc(C)c1O2	inconclusive: 45.6% [activator]	–
CC(=O)c1ccc(N2CCN(S(=O)(=O)c3c(C)[nH]c(=O)[nH]c3=O)CC2)cc1	–	inconclusive: 50.1 µM [activator, partial curve, poor fit]
Cc1c(O)ccc2c(CC(=O)N[C@@H](Cc3ccc(O)cc3)C(=O)O)cc(=O)oc12	–	inconclusive: 44.7 µM [activator, partial curve, poor fit]
CC1=CS/C(=C(/C#N)C(=O)N2CCOCC2)N1c1ccccc1	–	inconclusive: 14.1 µM [activator, partial curve, poor fit]
